Assay results: PMC6105217
No constants are given. Whether binding was seen depends on the method and setting. Binding seen in cells or lysates may run through a third protein. Some binding calls cover weakened binding; strength is not graded here. Where a sequence is shown, tags or fusion partners need not be part of it.

By UniProt entry, the sequences of proteins in these tests, tags left out.
UniProt Q97ZF1: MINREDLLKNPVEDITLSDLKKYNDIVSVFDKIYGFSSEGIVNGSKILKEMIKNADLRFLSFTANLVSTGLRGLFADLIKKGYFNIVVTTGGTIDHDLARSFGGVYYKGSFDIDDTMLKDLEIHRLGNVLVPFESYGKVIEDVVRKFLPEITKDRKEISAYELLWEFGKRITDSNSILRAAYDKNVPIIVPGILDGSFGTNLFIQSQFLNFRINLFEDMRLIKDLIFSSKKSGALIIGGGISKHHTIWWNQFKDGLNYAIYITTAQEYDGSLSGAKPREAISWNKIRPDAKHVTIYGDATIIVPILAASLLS

Target: T1, N-His-aIF5A produced in Sso PH1-16 (pMJ05-N-His-aIF5A) (Sulfolobus solfataricus) (UniProt Q97ZE8)
T1 sequence (chain, modified, recognised by anti-hypusine antibodies (hypusine or deoxyhypusine)): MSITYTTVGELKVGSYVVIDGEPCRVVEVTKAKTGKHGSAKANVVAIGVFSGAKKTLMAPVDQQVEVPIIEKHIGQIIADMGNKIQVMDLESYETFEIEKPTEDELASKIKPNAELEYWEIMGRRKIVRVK
Assay: pull-down; more stringent purification procedures of His-tagged aIF5A from Sso PH1-16 lysates (not shown)

For “Deoxyhypusine synthase (aDHS) (from UniProt Q97ZF1 1-312) (enzyme)”, the binding was “binds”.
